Data as given in PubChem BioAssay AID1259327 (Drosophila RNAi Screening Center, 2017).
Screen: 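Knock-downs altering cellular ATP with no metal added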. Cells: Drosophila S2R+ cells. Knock-down reagent: long dsRNA against Drosophila genes. Time to read-out: 5 days (water added on day 4, read one day later). Treatment: water added as vehicle, no metal, one day before read-out. Read-out: 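Luciferase ATP signal per well, normalised to plate mean, duplicate average converted to z-score across plates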. Scale: ATP z-score: higher = more total ATP than typical wells; ATP luminescence: higher = more total ATP. Active means: 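Called active when the ATP z-score exceeds 1.5 or falls below -1.5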. Meaning of the calls: active = hit: ATP up or down; inactive = no clear ATP change.
Here is one part, drawn at random, of about 3,100 deposited reagents. Of all reagents, 378 (12%) got an active call. 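Hits include both directions; z-score sign shows ATP rise or fall; raw luminescence values are not plate-normalised.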 Reagents against one gene are numbered here. No sequences are given here. Not given: the amount of reagent.

gene	reagent	ATP z-score, duplicate mean	ATP luminescence, replicate 1 (RLU)	ATP luminescence, replicate 2 (RLU)	outcome
Delta	1	1.02	3.70e5	8.09e5	inactive
Delta	2	0.541	9.92e5	8.42e5	inactive
CG6484	1	1.24	8.27e5	9.01e5	inactive
CG6484	2	-1.13	1.12e6	9.62e5	inactive
CG4462	1	0.193	7.36e5	7.15e5	inactive
CG4462	2	0.931	1.01e6	8.63e5	inactive
CG11601	1	0.516	8.05e5	7.14e5	inactive
CG11601	2	-1.09	4.05e5	3.77e5	inactive
Ork1	1	-0.563	6.00e5	6.93e5	inactive
Ork1	2	0.47	4.94e5	4.75e5	inactive
Marf	1	-0.0596	8.24e5	7.81e5	inactive
Pex12	1	0.465	7.93e5	7.15e5	inactive
Pex12	2	0.0258	7.22e5	1.03e6	inactive
ATPsynbeta	1	-0.233	6.54e5	5.55e5	inactive
TkR99D	1	-1.36	5.36e5	7.20e5	inactive
TkR99D	2	1.38	6.73e5	7.34e5	inactive
ItgaPS5	1	1.44	8.70e5	8.87e5	inactive
ItgaPS5	2	0.77	9.85e5	8.52e5	inactive
trn	1	2.13	1.27e6	1.09e6	active
BicC	1	0.5	7.41e5	8.17e5	inactive
BicC	2	0.631	9.88e5	8.17e5	inactive
ppk25	1	-1.09	5.49e5	4.93e5	inactive
ppk25	2	1.56	9.31e5	9.54e5	active
CG33253	1	-0.336	6.00e5	8.19e5	inactive
CG33253	2	-0.679	3.82e5	4.57e5	inactive
Rh4	1	-0.898	9.96e5	1.09e6	inactive

Ordered by “ATP z-score, duplicate mean” (lowest first): 5 of the entries above
gene	reagent	ATP z-score, duplicate mean	ATP luminescence, replicate 1 (RLU)	ATP luminescence, replicate 2 (RLU)	outcome
CG6484	2	-1.13	1.12e6	9.62e5	inactive
CG4462	1	0.193	7.36e5	7.15e5	inactive
Delta	2	0.541	9.92e5	8.42e5	inactive
CG4462	2	0.931	1.01e6	8.63e5	inactive
CG6484	1	1.24	8.27e5	9.01e5	inactive

Further reagents:
gene	reagent	ATP z-score, duplicate mean	ATP luminescence, replicate 1 (RLU)	ATP luminescence, replicate 2 (RLU)	outcome
Task7	1	-0.766	2.83e5	6.31e5	inactive
Task7	2	-0.866	9.15e5	1.05e6	inactive
CG8112	1	0.128	2.98e5	7.93e5	inactive
CG8112	2	-0.055	4.45e5	4.53e5	inactive
CG14621	1	0.177	7.39e5	7.86e5	inactive
CG14621	2	-0.428	9.56e5	1.07e6	inactive
CG9308	1	-0.0537	6.95e5	7.45e5	inactive
CG9308	2	0.0522	9.19e5	7.47e5	inactive
Slc25A46a	1	-0.326	6.99e5	6.46e5	inactive
Slc25A46a	2	0.105	4.40e5	5.36e5	inactive
Osi19	1	-0.293	8.76e5	8.40e5	inactive
Ddr	1	1.15	8.16e5	6.30e5	inactive
Ddr	2	-0.0126	7.28e5	7.21e5	inactive
Ddr	3	-1.69	4.12e5	4.61e5	active
Nrx-IV	1	-0.927	6.88e5	5.74e5	inactive
Nrx-IV	2	-1.09	3.96e5	4.09e5	inactive
Sb	1	-0.229	3.07e5	6.91e5	inactive
Sb	2	0.6	9.60e5	8.36e5	inactive
CG7384	1	-0.624	4.53e5	4.16e5	inactive
CG5853	1	1.11	8.64e5	8.61e5	inactive
CG5853	2	-1.14	4.13e5	3.84e5	inactive
